# Results of single-concentration screens

By UniProt entry, the sequences of proteins in these tests, tags left out.
UniProt P9WFT3, whole entry: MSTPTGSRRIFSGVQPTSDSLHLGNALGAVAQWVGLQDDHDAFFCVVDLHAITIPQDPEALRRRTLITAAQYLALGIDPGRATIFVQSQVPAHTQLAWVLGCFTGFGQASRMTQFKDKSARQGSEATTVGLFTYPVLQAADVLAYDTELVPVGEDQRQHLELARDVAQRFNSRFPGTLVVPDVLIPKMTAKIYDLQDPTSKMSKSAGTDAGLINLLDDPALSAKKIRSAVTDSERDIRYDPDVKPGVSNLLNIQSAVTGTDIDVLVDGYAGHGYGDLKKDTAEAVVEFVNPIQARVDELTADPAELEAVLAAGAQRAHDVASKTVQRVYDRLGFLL
UniProt P9WNZ1, whole entry: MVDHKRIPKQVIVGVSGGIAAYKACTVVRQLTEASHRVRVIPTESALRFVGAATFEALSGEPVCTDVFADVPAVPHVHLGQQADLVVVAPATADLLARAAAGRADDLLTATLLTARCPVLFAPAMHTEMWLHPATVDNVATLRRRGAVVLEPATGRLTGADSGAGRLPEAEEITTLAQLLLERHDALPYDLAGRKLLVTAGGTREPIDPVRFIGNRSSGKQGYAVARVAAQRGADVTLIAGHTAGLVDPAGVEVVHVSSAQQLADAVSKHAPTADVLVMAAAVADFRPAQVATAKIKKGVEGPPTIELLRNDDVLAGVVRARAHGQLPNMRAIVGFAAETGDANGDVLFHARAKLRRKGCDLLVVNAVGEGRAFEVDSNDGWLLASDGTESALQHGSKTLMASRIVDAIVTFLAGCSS

The values are deposited in ChEMBL (CHEMBL3988442, “University of Dundee, Small-Polar-MMV Screening Library” (2021)).

Leishmania in macrophages: 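Cell assay of Leishmania donovani living inside macrophages; the read-out is not stated. Concentration: 30 µM. The record gives no direction; compounds that gave an IC50 in retests scored well above the rest, so higher reads as stronger inhibition. Of about 69,000 compounds tested this way, about 1,000 (1.5%) reached 50% or more in at least one test.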
MtTrpRS: 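Enzyme assay of tryptophanyl-tRNA synthetase; the read-out is not stated. Target: Tryptophan-tRNA ligase, Mycobacterium tuberculosis (UniProt P9WFT3). Concentration: 10 µM. Higher most likely means stronger inhibition; the record gives no direction and few retests gave an IC50. Size under these conditions: about 65,000 compounds, about 64 of them at 50% or above in at least one test.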
Toxoplasma: 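Assay of Toxoplasma gondii numbers, read through their beta-galactosidase reporter with a colour substrate. Concentration: 10 µM. Higher reads as fewer parasites (inferred from which compounds were picked for retests). Size under these conditions: about 67,000 compounds, about 260 of them at 50% or above in at least one test.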
CoaBC: 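Coenzyme A biosynthesis protein CoaBC, Mycobacterium tuberculosis (UniProt P9WNZ1). Enzyme assay of CoaBC with a phosphate dye (Biomol Green) read at 650 nm. Tested at 30 µM. Direction is inferred from only a few compounds that gave an IC50; most scored high, so higher reads as stronger inhibition. Most strong results did not repeat in a second test. About 67,000 compounds were tested under these conditions; 0.06% (about 40) showed 50% or more at least once.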

Each number is a percent effect as filed.
The record does not define 0% and 100%; most values in the screen are far below 50% and negative numbers occur (in some assays of this library far below -100).
Compounds were drawn at random from those tested, without regard to their results.
Two or more numbers in one place are separate tests of the same structure; such repeats can differ widely.

For Cn1cc(CN2C[C@@H]3[C@@H](C2)OCC(=O)N3Cc2ccncc2)cn1 the result was MtTrpRS: -1.822%; CoaBC: 1.673%.
For O=C(O)C[C@@H]1CCN(C(=O)C2CCCC2)C[C@@H]1CCN1CCCCC1 the result was Leishmania in macrophages: -56.73%; MtTrpRS: -5.497%; Toxoplasma: 0.6435%; CoaBC: 5.643%.
For COc1c(C2CCCN2Cc2cn3ccsc3n2)c(C)nn1C (centres unmarked) the result was Leishmania in macrophages: 7.347%; MtTrpRS: 0.6261%; Toxoplasma: 6.805%; CoaBC: -8.4%.
For c1ccc(SCCN2CCN(CCn3cncn3)CC2)cc1 the result was Leishmania in macrophages: 14.77%; MtTrpRS: 2.437%; Toxoplasma: -9.927%; CoaBC: 6.725%.
For CC(=O)N1C[C@@H]2CN(Cc3cccnc3)CCO[C@@H]2C1 the result was MtTrpRS: -4.534%; CoaBC: 0.4202%.
For Cn1ccnc1CC1CCCN(Cc2noc(C3CC3)n2)C1 (centres unmarked) the result was Leishmania in macrophages: 29%; MtTrpRS: -0.9169%; Toxoplasma: 6.929%; CoaBC: 3.675%.
For CC(C)CCN(C(=O)c1nc(S(C)(=O)=O)n2ccccc12)C1CC1 the result was Leishmania in macrophages: -8.771%; MtTrpRS: -1.337%; Toxoplasma: 3.052%; CoaBC: -2.895%.
For NC(=O)N1CCc2ncc(CNC(=O)CC3CC3)n2CC1 the result was Leishmania in macrophages: 26.34%; Toxoplasma: -12.99%; CoaBC: -1.238%.
For O=C1CO[C@H]2CN(Cc3cccc4[nH]ccc34)C[C@@H]2N1C1CCOCC1 the result was MtTrpRS: 9.412%; CoaBC: 11.99%.
For CNc1cc(-c2ccncc2)ncn1 the result was Leishmania in macrophages: 10.28% and 0.4645%; Toxoplasma: -0.6653%; CoaBC: 2.53%.
For O=C(NCCCO)Nc1cccc(C[S+]([O-])c2ccccc2)c1 (centres unmarked) the result was Leishmania in macrophages: 14.2%; MtTrpRS: -0.1235%; Toxoplasma: -4.394%; CoaBC: 1.225%.
For CN1CCN(C2CCN(CCOc3cccc(Cl)c3)CC2)C1=O the result was Leishmania in macrophages: 27.11%; MtTrpRS: 0.779%; Toxoplasma: 5.428%; CoaBC: 0.9032%.
For O=C1CCC2(CCCN(C(=O)c3ccc[nH]3)C2)CN1CCc1c[nH]cn1 (centres unmarked) the result was Leishmania in macrophages: -9.966%; MtTrpRS: 1.205%; Toxoplasma: 4.039%; CoaBC: -1.468%.
For O=C(CCc1ccccc1)C1CCCN(Cc2cncn2C2CC2)C1 (centres unmarked) the result was Leishmania in macrophages: -2.39%; MtTrpRS: -1.89%; Toxoplasma: 21.26%; CoaBC: 7.417%.
For O=C(Cn1cc(I)cn1)N1CCCCCC1 the result was Leishmania in macrophages: 13.44%; MtTrpRS: 3.497%; Toxoplasma: 3.838%; CoaBC: 8.545%.
For O=S(=O)(c1ccccc1)N1CCC2(CCCN2Cc2ccccc2Cl)C1 (centres unmarked) the result was Leishmania in macrophages: 52.23%; MtTrpRS: 8.131%; Toxoplasma: 18.27%; CoaBC: 3.75%.
For Cc1occc1CNC(=O)Nc1ccc2nc(N3CCOCC3)oc2c1 the result was Leishmania in macrophages: -13.01%; MtTrpRS: -0.7346%; Toxoplasma: -8.222%; CoaBC: 3.023%.
For CN(CCCN1CCCC1)[C@@H]1c2ccccc2C2(CCNCC2)[C@H]1O the result was Leishmania in macrophages: -22.33%; MtTrpRS: 2.803%; Toxoplasma: 0.8979%; CoaBC: -33.05%.
For COCC1CCN(C(=O)c2cn(Cc3ccccc3C(F)(F)F)nn2)C1 (centres unmarked) the result was Leishmania in macrophages: -14.8% and 7.055%; MtTrpRS: -0.3268%; Toxoplasma: -5.673%; CoaBC: 4.326%.
For Cc1noc(C2(NC(=O)c3cccnc3O)CCCCC2)n1 the result was Leishmania in macrophages: 8.601%; MtTrpRS: -1.498%; Toxoplasma: -1.046%; CoaBC: 0.8783%.
For Cc1ccc(-c2noc(C3CCN3C(=O)c3cc[nH]n3)n2)s1 (centres unmarked) the result was Leishmania in macrophages: 34.83%; MtTrpRS: -3.982%; Toxoplasma: 14.18%; CoaBC: 5.569%.
For COCCNS(=O)(=O)c1cccc2c1CN(C(=O)c1ccoc1)CC2 the result was Leishmania in macrophages: 5.928%; MtTrpRS: -1.205%; Toxoplasma: 1.386%; CoaBC: 3.1%.
For Cc1nc(C)n(CC2CN(Cc3cccs3)Cc3nccn3C2)n1.O=C(O)C(F)(F)F (centres unmarked) the result was Leishmania in macrophages: -3.888%; Toxoplasma: -2.593%.
For COc1nc2c(cc1C(=O)NCCc1nc(C)c(C(=O)O)s1)CCC2 the result was Leishmania in macrophages: 20.31%; MtTrpRS: 14.22%; Toxoplasma: -1.243%; CoaBC: -3.719%.
For O=C(N[C@@H]1CCC[C@@H](N2CCCC2)[C@@H]1O)c1cnn2cccnc12 the result was Leishmania in macrophages: 20% and 17.93%; MtTrpRS: 4.58%; Toxoplasma: -53.81%; CoaBC: 5.353%.
For Cc1ccc(C)c(-n2ncc(NC(=O)NC3(C)CCOC3)c2C)c1 (centres unmarked) the result was Leishmania in macrophages: 2.947%; MtTrpRS: 0.7276%; Toxoplasma: -0.7545%; CoaBC: -4.839%.
For O=C(NCc1ccco1)[C@@]12CCO[C@@H]1CCN(C1CCC1)C2 the result was MtTrpRS: 0.6509%; CoaBC: 4.886%.
For CC(C)C(=O)NC1CCN(Cc2cccc3c2OCCO3)CC1 the result was Leishmania in macrophages: 10.13%; MtTrpRS: -2.242%; Toxoplasma: -1.969%; CoaBC: 3.655%.
For CCCn1ccnc1CN1CCCC1c1cccc(-n2ccnc2)n1 (centres unmarked) the result was Leishmania in macrophages: 6.228% and -2.808%; MtTrpRS: 13.62%; Toxoplasma: -17.24%; CoaBC: 7.056%.
For CCc1cccc(NS(=O)(=O)c2cc(C)c(C(=O)O)s2)c1 the result was Leishmania in macrophages: -0.06061%; MtTrpRS: 4.661%; Toxoplasma: -49.33%; CoaBC: -2.146%.
For CC(C)Cn1c2c(ccc1=O)CC(NC(=O)c1ccsc1)CC2 (centres unmarked) the result was Leishmania in macrophages: 27.29%; MtTrpRS: -4.334%; Toxoplasma: 27.53%; CoaBC: 2.709%.
For COc1ccc(S(=O)(=O)C2CCN(C(=O)c3cc(C)cs3)CC2)cc1 the result was Leishmania in macrophages: 25.83%; MtTrpRS: -0.2681%; Toxoplasma: 34.11%; CoaBC: 5.368%.
For CCN1CCN(C2CCN(Cc3nc(CCOC)no3)CC2)C1=O the result was Leishmania in macrophages: 26.68%; MtTrpRS: 0.9169%; Toxoplasma: -3.067%; CoaBC: 7.612%.
For CC(C)(CO)Nc1ccc(-c2nc(-c3ccccc3F)no2)cn1 the result was Leishmania in macrophages: -6.29%; MtTrpRS: -48.04%; Toxoplasma: 4.641%; CoaBC: 11.97%.